Measured values: patent US20160033535A1
Results are given in words; binding and its absence hold for the method and conditions named. Binding seen in cells or lysates may run through a third protein. Some binding calls cover weakened binding; strength is not graded here.

Chains of the proteins cited; added tags and fusions are not shown. Residues count along the entry.
UniProt P07910, residues 2-306: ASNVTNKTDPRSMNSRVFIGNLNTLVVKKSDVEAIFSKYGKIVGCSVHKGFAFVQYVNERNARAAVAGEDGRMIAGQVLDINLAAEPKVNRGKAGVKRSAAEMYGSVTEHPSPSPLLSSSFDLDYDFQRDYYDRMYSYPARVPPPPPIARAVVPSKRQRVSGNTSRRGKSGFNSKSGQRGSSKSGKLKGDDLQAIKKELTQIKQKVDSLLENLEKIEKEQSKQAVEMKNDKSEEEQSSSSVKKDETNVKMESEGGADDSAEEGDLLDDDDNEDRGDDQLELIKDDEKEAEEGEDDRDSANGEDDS

Legend:
[1] = biological target: T1, FGGY protein (human) (UniProt Q96C11); experiment: reciprocal co-immunoprecipitation from HeLa and HEK293 lysates, Western blot
T1 sequence: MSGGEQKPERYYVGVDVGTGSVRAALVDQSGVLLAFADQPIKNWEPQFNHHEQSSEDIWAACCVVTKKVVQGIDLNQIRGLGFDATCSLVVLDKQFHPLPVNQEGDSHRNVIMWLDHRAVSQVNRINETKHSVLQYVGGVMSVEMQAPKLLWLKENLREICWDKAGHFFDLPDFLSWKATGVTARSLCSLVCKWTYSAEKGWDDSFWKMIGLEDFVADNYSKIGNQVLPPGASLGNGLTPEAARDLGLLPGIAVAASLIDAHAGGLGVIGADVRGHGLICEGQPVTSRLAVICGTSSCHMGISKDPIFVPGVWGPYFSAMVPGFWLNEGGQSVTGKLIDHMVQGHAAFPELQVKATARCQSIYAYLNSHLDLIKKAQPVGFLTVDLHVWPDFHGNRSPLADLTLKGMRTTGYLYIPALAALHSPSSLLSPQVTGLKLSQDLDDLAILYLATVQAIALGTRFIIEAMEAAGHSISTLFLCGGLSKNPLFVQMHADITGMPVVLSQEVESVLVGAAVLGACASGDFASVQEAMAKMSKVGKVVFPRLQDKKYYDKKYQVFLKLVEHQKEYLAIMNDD

[2] = biological target: T1, FGGY protein (human); experiment: reciprocal co-immunoprecipitation from cell lysates under stringent conditions, Western blot
[3] = biological target: T1, FGGY protein (human); experiment: immunoprecipitation of endogenous FGGY from cell lysates, LC-MS/MS of the precipitate (results not shown)

binding [1]: binds
binding [2]: binds
binding [3]: binds
Substance: heterogenous nuclear ribonucleoprotein C (HnRNP C) (from UniProt P07910 2-306)
